Drawing on article PMC4557629, this text covers binding for two molecules.

By UniProt entry, the sequences of proteins in these tests, tags left out. Where a name states a change or a piece, a line headed by the entry shows the natural chain unless it says otherwise. Residues count along the entry.
UniProt Q13148: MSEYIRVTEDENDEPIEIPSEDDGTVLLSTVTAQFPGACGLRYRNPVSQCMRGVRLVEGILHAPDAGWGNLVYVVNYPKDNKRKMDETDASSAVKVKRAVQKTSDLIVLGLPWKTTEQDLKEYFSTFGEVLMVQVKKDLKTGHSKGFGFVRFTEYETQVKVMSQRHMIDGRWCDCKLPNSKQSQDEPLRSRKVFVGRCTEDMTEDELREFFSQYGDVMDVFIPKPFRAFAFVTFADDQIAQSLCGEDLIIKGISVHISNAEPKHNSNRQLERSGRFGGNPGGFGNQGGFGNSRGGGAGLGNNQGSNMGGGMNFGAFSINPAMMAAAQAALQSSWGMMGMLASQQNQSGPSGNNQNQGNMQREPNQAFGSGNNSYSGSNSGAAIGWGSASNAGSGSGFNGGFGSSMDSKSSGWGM
GST-TDP-43(1–251): residues 1-251 of Q13148

No constants are given. Whether binding was seen depends on the method and setting. For some assays here: Binding seen in cells or lysates may run through a third protein. Some results given as binding are weak or reduced against the parent protein; the word gives no strength. For some assays here: Sequences can lack the tags named with a protein.

In assay [1] the target is TDP-43 of human brain cortex (ALS patient and control) (human (endogenous in brain cortex)) (UniProt Q13148). The assay is described as follows: co-IP; immunoprecipitation of TDP-43 from whole, cytosolic and nuclear fractions of ALS patient and control brain cortex; rabbit IgG control.
The target of assay [2] is GST-TDP-43(1–251) (human) (UniProt Q13148). In words: pull-down; in vitro GST pull-down: GST fusion proteins of TDP-43 fragments incubated with purified His-PSF proteins of different regions; both purified.

B1: NeuN of human brain cortex (protein, UniProt A6NFN3 1-312)
chain: MAQPYPPAQYPPPPQNGIPAEYAPPPPHPTQDYSGQTPVPTEHGMTLYTPAQTHPEQPGSEASTQPIAGTQTVPQTDEAAQTDSQPLHPSDPTEKQQPKRLHVSNIPFRFRDPDLRQMFGQFGKILDVEIIFNERGSKGFGFVTFETSSDADRAREKLNGTIVEGRKIEVNNATARVMTNKKTGNPYTNGWKLNPVVGAVYGPEFYAVTGFPYPTTGTAVAYRGAHLRGRGRAVYNTFRAAPPPPPIPTYGAVVYQDGFYGAEIYGGYAAYRYAQPAAAAAAYSDSYGRVYAAADPYHHTIGPAATYSIGTM
As for B1, the binding entry in assay [1] is given as “binds”.

B2: His-PSF(444–707) (domain or fragment, UniProt P23246 444-707)
chain: PVIVEPLEQLDDEDGLPEKLAQKNPMYQKERETPPRFAQHGTFEYEYSQRWKSLDEMEKQQREQVEKNMKDAKDKLESEMEDAYHEHQANLLRQDLMRRQEELRRMEELHNQEMQKRKEMQLRQEEERRRREEEMMIRQREMEEQMRRQREESYSRMGYMDPRERDMRMGGGGAMNMGDPYGSGGQKFPPLGGGGGIGYEANPGVPPATMSGSMMGSDMRTERFGQGGAGPVGGQGPRGMGPGTPAGYGRGREEYEGPNKKPRF
As for B2, the binding result in assay [2] is “no binding”.
